Each number is a percent effect as filed. How 0% and 100% were set is not recorded. Most values in the screen are low, and negative values occur. This is an unselected part of the compounds tested.

Mtb heat-shock: 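Assay on Mycobacterium tuberculosis, filed only as a heat shock assay from Cornell; the read-out is not stated. The concentration is filed as 10 mM, unlikely as a test dose, so the dose is not known. The record gives no direction; compounds that gave an IC50 in retests scored well above the rest, so higher reads as stronger inhibition. Size under these conditions: about 69,000 compounds, about 930 of them at 50% or above in at least one test.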
Mtb growth Cornell: 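Whole-cell assay for inhibitors of Mycobacterium tuberculosis growth, labelled Cornell in the record; the read-out is not stated. The concentration is filed as 10 mM, unlikely as a test dose, so the dose is not known. The record gives no direction; compounds strong in two other growth screens of this library score well above the rest, so higher reads as stronger inhibition. Size under these conditions: about 53,000 compounds, about 900 of them at 50% or above in at least one test.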

* CSC(C)(C)CNC(=O)NCC[S+]([O-])c1ccccc1 (stereo not drawn) | Mtb heat-shock: 10.08%
* O=C(O)C(F)(F)F.[H][C@@]12CC(COCc3cccnc3)C[C@@]1([H])N(S(=O)(=O)C1CC1)CCO2 (stereo partly drawn) | Mtb heat-shock: 22.38%; Mtb growth Cornell: 13.84%
* Cn1ccc(C(=O)N2CCCC(Cc3cnc4ccccc4c3)C2)n1 (stereo not drawn) | Mtb heat-shock: -16.06%
* COc1ccccc1C(=O)NCc1n[nH]c(C)n1 | Mtb heat-shock: -0.3616%
* [H][C@@]12CCCO[C@]1([H])[C@H](OCC1CCCC1)CN2C(=O)c1ccnnc1 | Mtb heat-shock: 18.22%; Mtb growth Cornell: 31.71%
* Cc1cnc(-c2nc(NC3CCCC3)ncc2-c2onc(C)c2C)cn1 | Mtb heat-shock: 12.85%; Mtb growth Cornell: 7.273%
* O=C(O)c1cc(-c2ccncc2F)cc(S(=O)(=O)N2CCCCCC2)c1 | Mtb heat-shock: 13.98%; Mtb growth Cornell: 19.09%
* COc1ccc(C)cc1CNCc1ccc(-n2nc(C)cc2C)nc1 | Mtb heat-shock: 2.663%
* O=C(CN1CCCC1Cn1cccn1)NC1CCN(C2CC2)CC1 (stereo not drawn) | Mtb heat-shock: -6.86%; Mtb growth Cornell: -6.101%
* Cc1cc(CN(CCO)c2ccc(Br)cc2)on1 | Mtb heat-shock: 0.1994%; Mtb growth Cornell: -7.31%
* O=C(c1ccc(O)cn1)N1CCOC(c2ccc(Cl)c(Cl)c2)C1 (stereo not drawn) | Mtb heat-shock: -2.474%; Mtb growth Cornell: 31.45%
* CCN(c1ccc(C(=O)NCCCN2CCCCC2)cc1)S(=O)(=O)CC | Mtb heat-shock: -27.57%; Mtb growth Cornell: 4.459%
* CCc1ccc(CN(C(=O)CCn2cc(S(N)(=O)=O)cn2)C2CC2)cc1 | Mtb heat-shock: -22.05%; Mtb growth Cornell: -10.53%
* COc1ccccc1[C@@H]1CN(C(=O)Cc2csc(C)n2)C[C@H]1C(=O)O | Mtb heat-shock: -23.04%; Mtb growth Cornell: -31.49%
* O=C(Cc1cccc(F)c1F)NC1COc2ccccc2C1=O (stereo not drawn) | Mtb heat-shock: -1.645%
* CC(C)NC(=O)CSc1nc2c(cnn2CCO)c(=O)[nH]1 | Mtb heat-shock: 7.592%; Mtb growth Cornell: 5.877%
* CC(C(N)=O)N1CCc2onc(-c3cccc(F)c3)c2C1 (stereo not drawn) | Mtb heat-shock: -7.236%
* Cc1cc(C(=O)NC2(C#N)CCSCC2)n(C)n1 | Mtb heat-shock: 23.51%; Mtb growth Cornell: 21.45%
* O=C(Cc1cccs1)N1CCC2(CCCN(CC3CCOCC3)C2)C1 (stereo not drawn) | Mtb heat-shock: -15.33%; Mtb growth Cornell: 10.63%
* Cc1ncsc1-c1nnc(C2CCN(Cc3cccc(Cl)c3)CC2)o1 | Mtb heat-shock: -7.941%
* CCS(=O)(=O)c1ccccc1N1CCC(NC(=O)NC2CCCC2)CC1 | Mtb heat-shock: 8.355%; Mtb growth Cornell: 12.93%
* CCc1nc(C)ncc1C(=O)N1CCN(CC)c2ccccc21 | Mtb heat-shock: 2.075%; Mtb growth Cornell: 25.79%
* O=C(O)C(F)(F)F.[H][C@@]12C[C@@H](OCc3ccccc3F)CN1CCN(c1ncccn1)C2 | Mtb heat-shock: -26.25%; Mtb growth Cornell: -0.37%
* CC(C)c1nn(C)c(N(C)C)c1CNCc1ccc(N(C)C)nc1 | Mtb heat-shock: 8.676%
* Cc1ccc(C)c(S(=O)(=O)NCCC(=O)NCc2ccoc2)c1 | Mtb heat-shock: -13.65%; Mtb growth Cornell: 8.15%
* O=C(c1ccc2c(c1)OCO2)N1CCC(C(=O)O)(c2ccccc2)CC1 | Mtb heat-shock: -22.19%
* Cc1nnc(CCNC(=O)[C@H]2CNC[C@@H](C(=O)N3CCCC3)C2)s1 | Mtb heat-shock: 0.9754%; Mtb growth Cornell: -18.31%
* CS(=O)(=O)NCC1CCCN(Cc2ccc(F)c3cccnc23)C1 (stereo not drawn) | Mtb heat-shock: -7.888%; Mtb growth Cornell: 5.552%
* CCOc1ccc(CC(CNC(=O)c2occc2C)C(N)=O)cc1 (stereo not drawn) | Mtb heat-shock: -4.639%
* CCOCC(=O)N1C[C@@H](O)[C@H](NC(C)=O)C1 | Mtb heat-shock: 7.162%; Mtb growth Cornell: 1.478%
* O=C(NCCc1cccnc1)Nc1cc(C(F)(F)F)c[nH]c1=O | Mtb heat-shock: -57.22%
* CC(C)c1nc2n(n1)CC(Nc1ncnc3ccccc13)CC2 (stereo not drawn) | Mtb heat-shock: 13.55%; Mtb growth Cornell: -18.98%
* Cc1noc(C)c1-c1cncc(C2CCCN2Cc2cncnc2)n1 (stereo not drawn) | Mtb heat-shock: 1.966%
* Cc1cc(N2CCC(NC(C)Cc3ccsc3)CC2)nc(C)n1 (stereo not drawn) | Mtb heat-shock: 5.784%; Mtb growth Cornell: -14.43%
* O=C(c1ccsc1)N1CCN(CC(O)c2cccc(F)c2)CC1 (stereo not drawn) | Mtb heat-shock: -3.897%; Mtb growth Cornell: -18.53%
* O=C(O)C(F)(F)F.[H][C@@]12CCCO[C@]1([H])[C@H](NC(=O)CC1CC1)CN(Cc1ccco1)C2 | Mtb heat-shock: -18.8%; Mtb growth Cornell: 16.95%
* CC(=O)N1CCCC2(CN(Cc3ccc(F)cc3)CCO2)C1.O=C(O)C(F)(F)F (stereo not drawn) | Mtb heat-shock: -8.67%; Mtb growth Cornell: 14.68%
* CCN(CC)CC1CCN(Cc2ncc(C(C)(C)C)o2)CC1 | Mtb heat-shock: -15.06%
* CN1CC(=O)N(C2CCC2)Cc2c(NC3CCNCC3)ncnc21 | Mtb heat-shock: -25.31%
* CCS(=O)(=O)N1CCCC(c2nccn2Cc2cccnc2)C1 (stereo not drawn) | Mtb heat-shock: 14.91%; Mtb growth Cornell: 15.17%
* Cc1nn(C)cc1CNCc1ccc(N(C)C)cc1 | Mtb heat-shock: 2.225%; Mtb growth Cornell: 6.301%
* CC(C)[C@H]1CN(Cc2c[nH]cn2)C[C@@H]1NC(=O)CC1CCC1 | Mtb heat-shock: -0.475%; Mtb growth Cornell: -9.017%
* CNCc1cn(CC2CCN(CC(C)(C)CN3CCCC3)CC2)nn1 | Mtb heat-shock: -24.81%; Mtb growth Cornell: -15.76%
* Cc1ncncc1C(=O)N1CCCC(n2cccn2)C1 (stereo not drawn) | Mtb heat-shock: -25.28%; Mtb growth Cornell: -12.26%
* Cc1ncsc1C(=O)NCC1CCC2(CCNCC2)CO1.Cl (stereo not drawn) | Mtb heat-shock: -2.776%; Mtb growth Cornell: 6.181%
* [H][C@@]12CCN(C(=O)c3cnc(C)cn3)C[C@@]1([H])O[C@H](c1nc(C)cs1)C2 | Mtb heat-shock: 18.3%; Mtb growth Cornell: -19.83%

The last 5 entries again:

With CC(C)[C@H]1CN(Cc2c[nH]cn2)C[C@@H]1NC(=O)CC1CCC1 the screen gave Mtb heat-shock: -0.475%; Mtb growth Cornell: -9.017%.
With CNCc1cn(CC2CCN(CC(C)(C)CN3CCCC3)CC2)nn1 the screen gave Mtb heat-shock: -24.81%; Mtb growth Cornell: -15.76%.
With Cc1ncncc1C(=O)N1CCCC(n2cccn2)C1 (stereo not drawn) the screen gave Mtb heat-shock: -25.28%; Mtb growth Cornell: -12.26%.
With Cc1ncsc1C(=O)NCC1CCC2(CCNCC2)CO1.Cl (stereo not drawn) the screen gave Mtb heat-shock: -2.776%; Mtb growth Cornell: 6.181%.
With [H][C@@]12CCN(C(=O)c3cnc(C)cn3)C[C@@]1([H])O[C@H](c1nc(C)cs1)C2 the screen gave Mtb heat-shock: 18.3%; Mtb growth Cornell: -19.83%.

Measurements from “University of Dundee, Small-Polar-MMV Screening Library” (2021), ChEMBL document CHEMBL3988442.